PubChem BioAssay AID1224831 | NIAID | 2016

- Aim: 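Retesting screen hits on the TLR4-driven TNF response with six separate siRNAs each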 (follow-up of hits)
- System: human THP-1 B5 monocytic leukaemia cells carrying a TNF promoter luciferase reporter, made macrophage-like with PMA
- Reagent: single siRNA against human genes, 50 nM
- Duration: about 68 h of knock-down, then 4 h LPS
- Conditions: LPS (Salmonella minnesota, TLR-grade) at 10 ng/ml for 4 h; PMA 5 ng/ml present during knock-down
- Measurement: 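Firefly to renilla luciferase ratio of a TNF promoter reporter after 4 h LPS, scaled to plate median, turned into robust z-score, averaged over replicates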
- Direction: TNF reporter z-score: higher = stronger LPS-induced TNF reporter signal; z-score, median over gene's siRNAs: higher = stronger TNF reporter signal across the gene's siRNAs
- Call rule: 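Active when the replicate mean z-score is about -1 or lower, or about 1.5 or higher; lowered and raised TNF reporter signal both count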
- Calls: active = changed TNF reporter (either direction); inactive = little change
In all, the deposit lists about 3,500 reagents; shown is a random part of them. Over the whole deposit, 731 (21%) are marked active. 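Active means either lowered or raised reporter signal; the gene-median score did not drive the per-siRNA calls.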 A number with no mark means an inactive call. The numbers tell different reagents against one gene apart. Reagent sequences are not shown.

gene	reagent no.	TNF reporter z-score, replicate mean	z-score, median over gene's siRNAs
STX4	1	-0.14	0.62
STX4	2	0.98	0.62
STX4	3	0.5	0.62
STX4	4	0.74	0.62
STX4	5	-0.04	0.62
STX4	6	1.92 (active)	0.62
MTOR	1	0.6	0.485
MTOR	2	0.98	0.485
MTOR	3	0.37	0.485
MTOR	4	-0.55	0.485
MTOR	5	0.21	0.485
MTOR	6	0.72	0.485
SMC3	1	-0.66	-0.63
SMC3	2	-0.54	-0.63
SMC3	3	-0.6	-0.63
SMC3	4	-1.09 (active)	-0.63
SMC3	5	-1.11 (active)	-0.63
SMC3	6	0.07	-0.63
DDR2	1	-1.03 (active)	0.37
DDR2	2	0.31	0.37
DDR2	3	0.65	0.37
DDR2	4	2.4 (active)	0.37
DDR2	5	0.43	0.37
DDR2	6	-0.38	0.37
ZNF444	1	-0.65	-0.61
ZNF444	2	0.98	-0.61
ZNF444	3	-1.1 (active)	-0.61
ZNF444	4	0.22	-0.61
ZNF444	5	-1.11 (active)	-0.61
ZNF444	6	-0.57	-0.61
SPOP	1	0.74	0.505
SPOP	2	0.35	0.505
SPOP	3	-0.31	0.505
SPOP	4	0.66	0.505
SPOP	5	-0.6	0.505
SPOP	6	1.05	0.505
STMN2	1	0.46	0.185
STMN2	2	-0.09	0.185
STMN2	3	0.46	0.185
STMN2	4	-1.81 (active)	0.185
STMN2	5	-1.13 (active)	0.185
STMN2	6	0.66	0.185
TEX2	1	2.38 (active)	-0.375
TEX2	2	-0.29	-0.375
TEX2	3	-0.46	-0.375
TEX2	4	-0.89	-0.375
TEX2	5	-0.11	-0.375
TEX2	6	-0.7	-0.375
ALDOA	1	-0.63	-0.465
ALDOA	2	0.07	-0.465
ALDOA	3	-0.46	-0.465
ALDOA	4	-1.39 (active)	-0.465
ALDOA	5	0.13	-0.465
ALDOA	6	-0.47	-0.465
SNAPIN	1	-0.04	-0.34
SNAPIN	2	-0.37	-0.34
SNAPIN	3	-0.31	-0.34
SNAPIN	4	0.41	-0.34
SNAPIN	5	-0.45	-0.34
SNAPIN	6	-0.41	-0.34
MBD3	1	1.55 (active)	0.255
MBD3	2	0.26	0.255
MBD3	3	-0.31	0.255
MBD3	4	0.25	0.255
MBD3	5	-1.92 (active)	0.255
MBD3	6	1.12	0.255
KCNJ5	1	-0.81	0.33
KCNJ5	2	0.78	0.33
KCNJ5	3	-0.15	0.33
KCNJ5	4	0.47	0.33
KCNJ5	5	0.76	0.33
KCNJ5	6	0.19	0.33
OR4D2	1	0.62	0.435
OR4D2	2	-0.4	0.435
OR4D2	3	1.52 (active)	0.435
OR4D2	4	-0.23	0.435
OR4D2	5	0.25	0.435
OR4D2	6	2.62 (active)	0.435
PSMB1	1	-1.2 (active)	-1.08
PSMB1	2	-0.72	-1.08
PSMB1	3	-0.91	-1.08
PSMB1	4	-0.97	-1.08
PSMB1	5	-1.46 (active)	-1.08
PSMB1	6	-1.67 (active)	-1.08
